Structures can show the parent of a compound that is named as a salt. At least one compound was matched to its structure with a doubt left.
Molecular target: SMOX from MV(4;11) cells (Homo sapiens (Human), UniProt Q9NWM0)
Test: Cellular binding: chemoprecipitation and anti-SMOX Western blot, MV(4;11)
Assay type: cell-based

Protein sequences, listed by entry. Tags and fused reporters are not part of them. Lines headed by an entry give the natural chain unless they say otherwise; changes in a name come on top.
UniProt Q9NWM0: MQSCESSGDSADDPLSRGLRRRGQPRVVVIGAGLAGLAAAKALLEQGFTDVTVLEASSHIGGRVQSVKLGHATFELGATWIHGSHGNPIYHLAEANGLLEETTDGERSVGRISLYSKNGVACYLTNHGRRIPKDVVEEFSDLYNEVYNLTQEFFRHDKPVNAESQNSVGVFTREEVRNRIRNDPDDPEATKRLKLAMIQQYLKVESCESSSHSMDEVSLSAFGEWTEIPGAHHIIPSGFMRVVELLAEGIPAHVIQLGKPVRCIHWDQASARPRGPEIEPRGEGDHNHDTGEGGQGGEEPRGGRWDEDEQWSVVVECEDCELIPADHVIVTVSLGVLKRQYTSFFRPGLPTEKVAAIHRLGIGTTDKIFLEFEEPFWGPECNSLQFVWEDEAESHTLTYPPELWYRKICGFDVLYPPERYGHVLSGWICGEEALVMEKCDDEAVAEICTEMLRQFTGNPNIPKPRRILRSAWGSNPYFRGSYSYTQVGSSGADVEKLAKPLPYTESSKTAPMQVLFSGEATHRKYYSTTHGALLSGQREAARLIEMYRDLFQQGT

With N[C@H]1CC[C@H](N[C@@H]2C[C@H]2c2ccc(-c3cccc(CCC(=O)NCCOCCOCCOCCOCCOCCOCCOCCOCCOCCOCCOCCNC(=O)CCCC[C@@H]4SC[C@@H]5NC(=O)N[C@@H]54)c3)cc2)CC1 [Example 1.6, N-(39-(4′-((1S,2R)-2-(((trans)-4-aminocyclohexyl)amino)cyclopropyl)-[1,1′-biphenyl]-3-yl)-37-oxo-3,6,9,12,15,18,21,24,27,30,33-undecaoxa-36-azanonatriacontyl)-5-((3aS,4S,6aR)-2-oxohexahydro-1H-thieno[3,4-d]imidazol-4-yl)pentanamide dihydrochloride] the “SMOX in chemoprecipitate (anti-SMOX Western blot)” value was “not detected”.

From US11034991B2, “Methods to determine KDM1A target engagement and chemoprobes useful therefor” (Oryzon Genomics S.A., priority 2016, dated 2021)
